In the supplement of paper PMC11438910:
The other results are listed elsewhere or left out. Most of these values are background signal.

What was measured:
Test in all cases: fluorescence intensity of antibody binding to polysaccharide-coupled beads; higher = stronger binding
[1] = target: pneumococcal polysaccharide Pn34
Experimental: (§1)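 Recombinant rhesus-murine chimeric IgG1 antibodies were tested against antigen-coupled MagPlex beads in a 96-plex Luminex direct immunoassay (dLIA). The beads carried pneumococcal capsular polysaccharides of 93 serotypes plus C-polysaccharides. Antibody was added at 0.1–12,500 ng/mL for 1 h, then PE anti-mouse IgG, and net MFI was read on a Bio-Plex 3D. Only the rhesus variable regions are printed; constant regions are murine IgG1/kappa/lambda, and the signal peptide is MGWSCIILFLVATATGVHS.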

[2] = target: pneumococcal polysaccharide Pn35A
Experimental: as §1

[3] = target: pneumococcal polysaccharide Pn35B
Experimental: as §1

[4] = target: pneumococcal polysaccharide Pn35C
Experimental: as §1

[5] = target: pneumococcal polysaccharide Pn35F
Experimental: as §1

[6] = target: pneumococcal polysaccharide Pn36
Experimental: as §1

[7] = target: pneumococcal polysaccharide Pn37
Experimental: as §1

[8] = target: pneumococcal polysaccharide Pn38
Experimental: as §1

[9] = target: pneumococcal polysaccharide Pn39
Experimental: as §1

[10] = target: pneumococcal polysaccharide Pn4
Experimental: as §1

[11] = target: pneumococcal polysaccharide Pn40
Experimental: as §1

[12] = target: pneumococcal polysaccharide Pn41A
Experimental: as §1

[13] = antibody concentration 0.1 ng/mL
[14] = antibody concentration 0.534724 ng/mL
[15] = antibody concentration 2.8593 ng/mL
[16] = antibody concentration 15.2894 ng/mL
[17] = antibody concentration 81.7561 ng/mL
[18] = antibody concentration 437.17 ng/mL
[19] = antibody concentration 2337.65 ng/mL
[20] = antibody concentration 12500 ng/mL

B1: 4-127.3 (protein)
chain 1: QVQLQESGPGLVKPSETLSLTCAVSGYSISSGYGWSWIRQPPGKGLEWIGYIGGSSGSTNYNPSLKSRVTVSKDTSKNQFSLKLSSVTAADTAVYYCARADYCTSTTCYGPNRFDVWGPGVLVTVSS
chain 2: QAAPTQSPSVSGSAGQSVTISCTGSSSDIGYYNGVSWYQHHPGKAPKLMIYEVSKRPSGVSNRFSGSKSGNTASLTISGLQAADEADYFCSSYAGSGTYIFGAGTRLTVL
Binder B1 has a fluorescence intensity [1, 13] of 15 MFI, a fluorescence intensity [1, 14] of 15 MFI and a fluorescence intensity [1, 15] of 15 MFI. It also gave a fluorescence intensity [1, 16] of 13.5 MFI, a fluorescence intensity [1, 17] of 14.8 MFI and a fluorescence intensity [1, 18] of 14.5 MFI. It also gave a fluorescence intensity [1, 19] of 15.8 MFI, a fluorescence intensity [1, 20] of 20 MFI and a fluorescence intensity [2, 13] of 20.5 MFI. For the same binder, the fluorescence intensity [2, 14] was 17.5 MFI, the fluorescence intensity [2, 15] was 18 MFI and the fluorescence intensity [2, 16] was 16.5 MFI. The fluorescence intensity [2, 17] was 17 MFI, the fluorescence intensity [2, 18] was 16.5 MFI and the fluorescence intensity [2, 19] was 22.5 MFI. It also gave a fluorescence intensity [2, 20] of 47.2 MFI, a fluorescence intensity [3, 13] of 20.5 MFI and a fluorescence intensity [3, 14] of 20 MFI. For the same binder, the fluorescence intensity [3, 15] was 18.8 MFI, the fluorescence intensity [3, 16] was 18.5 MFI and the fluorescence intensity [3, 17] was 19.5 MFI. It also gave a fluorescence intensity [3, 18] of 18.8 MFI, a fluorescence intensity [3, 19] of 20 MFI and a fluorescence intensity [3, 20] of 37 MFI. For the same binder, the fluorescence intensity [4, 13] was 21.2 MFI, the fluorescence intensity [4, 14] was 20.5 MFI and the fluorescence intensity [4, 15] was 20.5 MFI. For the same binder, the fluorescence intensity [4, 16] was 19.5 MFI, the fluorescence intensity [4, 17] was 19.5 MFI and the fluorescence intensity [4, 18] was 20.5 MFI. For the same binder, the fluorescence intensity [4, 19] was 20 MFI, the fluorescence intensity [4, 20] was 24 MFI and the fluorescence intensity [5, 13] was 20.8 MFI. It also gave a fluorescence intensity [5, 14] of 19.5 MFI, a fluorescence intensity [5, 15] of 22.8 MFI and a fluorescence intensity [5, 16] of 19 MFI. It also gave a fluorescence intensity [5, 17] of 21 MFI, a fluorescence intensity [5, 18] of 20.8 MFI and a fluorescence intensity [5, 19] of 22 MFI. It also gave a fluorescence intensity [5, 20] of 23.5 MFI, a fluorescence intensity [6, 13] of 15.5 MFI and a fluorescence intensity [6, 14] of 16 MFI. The fluorescence intensity [6, 15] was 14.5 MFI, the fluorescence intensity [6, 16] was 16.5 MFI and the fluorescence intensity [6, 17] was 16.5 MFI. The fluorescence intensity [6, 18] was 16 MFI, the fluorescence intensity [6, 19] was 18.8 MFI and the fluorescence intensity [6, 20] was 49 MFI. For the same binder, the fluorescence intensity [7, 13] was 26.8 MFI, the fluorescence intensity [7, 14] was 25.5 MFI and the fluorescence intensity [7, 15] was 26 MFI. It also gave a fluorescence intensity [7, 16] of 26 MFI, a fluorescence intensity [7, 17] of 28.5 MFI and a fluorescence intensity [7, 18] of 28 MFI. It also gave a fluorescence intensity [7, 19] of 44.2 MFI, a fluorescence intensity [7, 20] of 148 MFI and a fluorescence intensity [8, 13] of 27 MFI. It also gave a fluorescence intensity [8, 14] of 27.2 MFI, a fluorescence intensity [8, 15] of 27.5 MFI and a fluorescence intensity [8, 16] of 27.5 MFI. For the same binder, the fluorescence intensity [8, 17] was 26 MFI, the fluorescence intensity [8, 18] was 26.5 MFI and the fluorescence intensity [8, 19] was 30.5 MFI. For the same binder, the fluorescence intensity [8, 20] was 35.5 MFI, the fluorescence intensity [9, 13] was 20 MFI and the fluorescence intensity [9, 14] was 18 MFI. It also gave a fluorescence intensity [9, 15] of 18 MFI, a fluorescence intensity [9, 16] of 18 MFI and a fluorescence intensity [9, 17] of 17.5 MFI. For the same binder, the fluorescence intensity [9, 18] was 19 MFI, the fluorescence intensity [9, 19] was 21.5 MFI and the fluorescence intensity [9, 20] was 38.8 MFI. For the same binder, the fluorescence intensity [10, 13] was 19 MFI, the fluorescence intensity [10, 14] was 19 MFI and the fluorescence intensity [10, 15] was 18.5 MFI. The fluorescence intensity [10, 16] was 19 MFI, the fluorescence intensity [10, 17] was 18.5 MFI and the fluorescence intensity [10, 18] was 19.8 MFI. For the same binder, the fluorescence intensity [10, 19] was 24.5 MFI, the fluorescence intensity [10, 20] was 39 MFI and the fluorescence intensity [11, 13] was 17.2 MFI. For the same binder, the fluorescence intensity [11, 14] was 15.5 MFI, the fluorescence intensity [11, 15] was 16.5 MFI and the fluorescence intensity [11, 16] was 16.5 MFI. The fluorescence intensity [11, 17] was 17.2 MFI, the fluorescence intensity [11, 18] was 18 MFI and the fluorescence intensity [11, 19] was 21.5 MFI. It also gave a fluorescence intensity [11, 20] of 54.2 MFI, a fluorescence intensity [12, 13] of 24.8 MFI and a fluorescence intensity [12, 14] of 24 MFI.
